# Measurements: patent US6843979B2, “4-haloethenylphenyl tropane:serotonin transporter imaging agents” (Emory University, priority 1999, dated 2005)
# Sequences of proteins named here, by UniProt entry; tags and fusion partners are left off.
# UniProt P31645, whole entry: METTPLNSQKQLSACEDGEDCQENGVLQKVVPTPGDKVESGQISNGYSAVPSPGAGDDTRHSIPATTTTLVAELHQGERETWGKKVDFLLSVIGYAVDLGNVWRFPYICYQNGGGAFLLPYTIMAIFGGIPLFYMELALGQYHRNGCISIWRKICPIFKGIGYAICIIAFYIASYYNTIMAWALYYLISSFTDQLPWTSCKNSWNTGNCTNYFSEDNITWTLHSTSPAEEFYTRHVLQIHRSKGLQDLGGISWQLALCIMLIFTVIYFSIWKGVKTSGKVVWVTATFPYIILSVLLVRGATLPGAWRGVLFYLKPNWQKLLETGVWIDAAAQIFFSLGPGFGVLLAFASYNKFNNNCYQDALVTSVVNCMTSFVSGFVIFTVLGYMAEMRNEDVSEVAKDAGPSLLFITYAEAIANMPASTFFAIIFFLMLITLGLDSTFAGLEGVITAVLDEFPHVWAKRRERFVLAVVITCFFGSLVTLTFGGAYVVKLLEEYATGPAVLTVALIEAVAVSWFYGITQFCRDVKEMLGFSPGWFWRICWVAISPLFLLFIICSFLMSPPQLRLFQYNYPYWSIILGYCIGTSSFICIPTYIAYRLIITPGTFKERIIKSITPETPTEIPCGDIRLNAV
# Some of these results come from one statement about several compounds together. At least one structure is not confirmed: it was looked up by name or label, or the drawing left a doubt.
# Target: T1, human SERT (Homo sapiens, UniProt P31645)
# T1 construct: expressed in transfected cells
# Assay: Binding site competition, cells stably transfected with human SERT, [3H]citalopram
# Settings: transfected cell lines, listed as FIPPNT
compound,measurement,value
COC(=O)[C@H]1[C@@H](c2ccc(C(C)=CF)cc2)C[C@@H]2CC[C@H]1N2 [IPPNT],Ki,30 to 100 pM
